Experimental data reported in patent US20040236208A1, “Method for evaluation of tissue adhesion level” (SEIKAGAKU CORPORATION, priority 2003, published 2004).

Test system: scar tissue (between the vertebral body and dura)
Test: MRI imaging after gadolinium administration, L6 laminectomy adhesion model (Example 1)
Assay type: in vivo, NZW rabbits
Protocol: From NZW rabbits (n=10), the vertebral arch of the sixth lumbar vertebra was excised (L6 Laminectomy) (FIG. 1). On Week 4, gadolinium was administered, followed by MRI imaging.
An MRI image in the gadolinium free case is shown on the left side of FIG. 2, while an MRI image when gadolinium was administered is shown on the right side.
FIG. 3 is an enlarged cross-sectional view of the boundary surface between the vertebral body and dura. The diagram on the left side of FIG. 3 is one example in which the length of a site stained by gadolinium in the cross-section of the boundary surface between the vertebral body and dura is regarded as “Grade 0”. In this cross-section of the boundary surface between the vertebral body and dura, the length of the site stained by gadolinium is 0.00 mm.
In such a manner, the site from which the vertebral arch of the sixth lumbar vertebra had been excised was subjected to MRI imaging at intervals of 2.5 mm and the length of the site stained by gadolinium in the cross-section of the boundary surface between the vertebral body and dura was measured.
Thereafter, the spinal column was taken out and was fenestrated to make an opening of about 17 mm on the side (anterior) opposite to the adhesion formed surface (posterior). At the opening portion, a clamp was set and a force necessary for separating the spinal cord with dura was measured (FIG. 5). FIG. 6 illustrates the actual separation work of the spinal cord with dura. The force necessary for separation directly reflects the adhesion level so that it becomes an index of the adhesion level. FIG. 7 illustrates the actual separation work of the spinal cord with dura and one example of the relationship between the displacement and force required therefor.
The correlation between the maximum force necessary for separation and “length of a site stained by gadolinium in the cross-section of the boundary surface between the vertebral body and dura” as measured by MRI was analyzed. The result is shown in FIG. 9 (n=9, p<0.10)(r^2=0.5724).

[Gd] [gadolinium]
length of the site stained by gadolinium in the cross-section of the boundary surface between the vertebral body and dura (example regarded as Grade 0, FIG. 3 left): 0.00 mm
length of the site stained by gadolinium in the cross-section of the boundary surface between the vertebral body and dura (example regarded as Grade 1, FIG. 3 centre): 1.31 mm
length of the site stained by gadolinium in the cross-section of the boundary surface between the vertebral body and dura (example regarded as Grade 2, FIG. 3 right): 2.43 mm
scar tissue (between the vertebral body and dura) on the MRI image (gadolinium administered, fat signals suppressed, Week 4 after L6 laminectomy, FIG. 2 right): white highlighted
